Assay results: the supplement of paper PMC10849652
The list shows a part of the results.

By UniProt entry, the sequences of proteins in these tests, tags left out. Where a name states a change or a piece, a line headed by the entry shows the natural chain unless it says otherwise.
UniProt O95405: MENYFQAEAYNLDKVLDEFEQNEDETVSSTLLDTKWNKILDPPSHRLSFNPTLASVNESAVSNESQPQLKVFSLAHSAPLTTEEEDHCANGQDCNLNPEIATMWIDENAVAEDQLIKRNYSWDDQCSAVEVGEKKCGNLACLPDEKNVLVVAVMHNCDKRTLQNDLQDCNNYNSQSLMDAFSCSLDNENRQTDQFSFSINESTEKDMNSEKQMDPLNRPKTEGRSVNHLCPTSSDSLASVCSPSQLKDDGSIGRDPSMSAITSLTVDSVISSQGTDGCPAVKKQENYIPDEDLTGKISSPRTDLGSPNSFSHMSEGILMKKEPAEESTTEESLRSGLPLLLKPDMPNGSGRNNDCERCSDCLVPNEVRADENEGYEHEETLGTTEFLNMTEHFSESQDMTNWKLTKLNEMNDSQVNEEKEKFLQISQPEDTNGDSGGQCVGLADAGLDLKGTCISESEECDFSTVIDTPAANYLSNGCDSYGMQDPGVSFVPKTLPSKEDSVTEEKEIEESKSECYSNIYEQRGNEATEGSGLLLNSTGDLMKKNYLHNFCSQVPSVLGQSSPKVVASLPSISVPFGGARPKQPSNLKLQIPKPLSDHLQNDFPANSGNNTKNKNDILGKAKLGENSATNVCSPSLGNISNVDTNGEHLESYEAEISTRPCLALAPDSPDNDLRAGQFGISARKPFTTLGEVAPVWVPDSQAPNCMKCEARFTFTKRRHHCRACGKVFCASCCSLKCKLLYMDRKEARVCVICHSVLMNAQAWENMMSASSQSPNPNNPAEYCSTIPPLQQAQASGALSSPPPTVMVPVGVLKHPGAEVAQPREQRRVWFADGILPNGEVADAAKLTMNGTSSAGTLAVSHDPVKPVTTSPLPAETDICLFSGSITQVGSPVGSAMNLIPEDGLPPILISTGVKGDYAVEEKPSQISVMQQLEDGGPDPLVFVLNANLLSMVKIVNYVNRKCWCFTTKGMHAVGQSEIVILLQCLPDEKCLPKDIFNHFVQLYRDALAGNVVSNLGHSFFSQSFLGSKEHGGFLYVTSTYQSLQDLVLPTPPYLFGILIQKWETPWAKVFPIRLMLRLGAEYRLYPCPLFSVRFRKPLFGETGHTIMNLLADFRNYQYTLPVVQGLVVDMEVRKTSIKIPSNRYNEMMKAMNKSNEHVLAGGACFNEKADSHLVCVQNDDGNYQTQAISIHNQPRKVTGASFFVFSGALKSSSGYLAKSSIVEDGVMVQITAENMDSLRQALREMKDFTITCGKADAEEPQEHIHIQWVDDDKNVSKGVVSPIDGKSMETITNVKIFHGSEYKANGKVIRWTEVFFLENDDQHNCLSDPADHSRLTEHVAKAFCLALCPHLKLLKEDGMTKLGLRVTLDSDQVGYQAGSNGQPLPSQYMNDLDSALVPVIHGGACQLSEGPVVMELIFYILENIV
UniProt Q96EC8: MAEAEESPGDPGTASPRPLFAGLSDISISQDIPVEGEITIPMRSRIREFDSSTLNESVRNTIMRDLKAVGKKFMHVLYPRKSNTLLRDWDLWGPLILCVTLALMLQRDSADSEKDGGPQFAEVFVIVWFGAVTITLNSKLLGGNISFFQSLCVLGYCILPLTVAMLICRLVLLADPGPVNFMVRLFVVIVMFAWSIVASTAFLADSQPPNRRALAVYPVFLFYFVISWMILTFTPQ
UniProt Q8WV99: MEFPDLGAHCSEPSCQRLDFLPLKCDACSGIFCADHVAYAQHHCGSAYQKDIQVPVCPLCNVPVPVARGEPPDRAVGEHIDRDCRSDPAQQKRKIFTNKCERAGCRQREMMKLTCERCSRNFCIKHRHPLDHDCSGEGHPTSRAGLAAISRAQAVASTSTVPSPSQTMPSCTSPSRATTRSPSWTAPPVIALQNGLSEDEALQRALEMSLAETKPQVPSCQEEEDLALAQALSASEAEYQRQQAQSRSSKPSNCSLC
UniProt Q8N5A5: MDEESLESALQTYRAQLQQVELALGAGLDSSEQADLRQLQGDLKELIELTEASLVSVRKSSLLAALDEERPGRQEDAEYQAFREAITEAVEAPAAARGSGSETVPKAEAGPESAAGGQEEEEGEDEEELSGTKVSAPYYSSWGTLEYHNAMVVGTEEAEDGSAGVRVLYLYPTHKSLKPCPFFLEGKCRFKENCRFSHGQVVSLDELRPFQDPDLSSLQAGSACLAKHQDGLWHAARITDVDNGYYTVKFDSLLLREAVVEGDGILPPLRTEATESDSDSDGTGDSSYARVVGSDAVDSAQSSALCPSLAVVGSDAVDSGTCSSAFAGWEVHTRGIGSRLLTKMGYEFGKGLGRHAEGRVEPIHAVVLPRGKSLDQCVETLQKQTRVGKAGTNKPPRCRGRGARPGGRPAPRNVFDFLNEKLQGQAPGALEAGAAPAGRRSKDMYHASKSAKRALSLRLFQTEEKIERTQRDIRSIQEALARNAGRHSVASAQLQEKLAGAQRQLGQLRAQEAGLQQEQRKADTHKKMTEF
UniProt Q9NUD5: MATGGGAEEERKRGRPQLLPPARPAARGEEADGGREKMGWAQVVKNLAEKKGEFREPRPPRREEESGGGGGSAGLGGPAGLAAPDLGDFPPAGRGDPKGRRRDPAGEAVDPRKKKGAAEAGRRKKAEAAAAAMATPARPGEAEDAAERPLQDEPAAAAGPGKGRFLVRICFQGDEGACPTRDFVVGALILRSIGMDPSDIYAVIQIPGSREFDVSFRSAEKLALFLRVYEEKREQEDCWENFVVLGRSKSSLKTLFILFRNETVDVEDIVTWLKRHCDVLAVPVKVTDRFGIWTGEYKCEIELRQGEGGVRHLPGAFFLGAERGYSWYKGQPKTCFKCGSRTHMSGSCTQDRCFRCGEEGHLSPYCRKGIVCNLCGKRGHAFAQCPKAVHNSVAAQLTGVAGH
UniProt P13010: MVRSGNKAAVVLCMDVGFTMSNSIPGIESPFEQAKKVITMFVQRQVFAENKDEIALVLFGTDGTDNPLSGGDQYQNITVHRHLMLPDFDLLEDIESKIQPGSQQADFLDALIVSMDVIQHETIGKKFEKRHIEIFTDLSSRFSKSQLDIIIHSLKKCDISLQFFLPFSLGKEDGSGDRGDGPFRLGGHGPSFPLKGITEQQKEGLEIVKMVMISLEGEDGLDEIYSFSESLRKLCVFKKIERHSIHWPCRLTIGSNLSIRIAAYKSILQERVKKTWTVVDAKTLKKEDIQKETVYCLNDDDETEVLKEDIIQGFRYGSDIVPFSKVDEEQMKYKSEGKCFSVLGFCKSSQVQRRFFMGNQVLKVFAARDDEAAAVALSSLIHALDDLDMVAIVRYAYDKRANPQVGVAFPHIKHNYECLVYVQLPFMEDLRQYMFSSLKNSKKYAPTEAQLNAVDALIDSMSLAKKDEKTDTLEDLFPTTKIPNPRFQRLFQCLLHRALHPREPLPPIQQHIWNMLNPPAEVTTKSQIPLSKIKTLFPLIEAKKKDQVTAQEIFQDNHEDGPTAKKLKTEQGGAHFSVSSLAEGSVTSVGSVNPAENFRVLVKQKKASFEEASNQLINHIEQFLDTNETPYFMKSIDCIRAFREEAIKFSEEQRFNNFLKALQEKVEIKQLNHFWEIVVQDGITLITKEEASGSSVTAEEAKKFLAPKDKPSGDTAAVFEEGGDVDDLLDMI
UniProt Q9Y5A9: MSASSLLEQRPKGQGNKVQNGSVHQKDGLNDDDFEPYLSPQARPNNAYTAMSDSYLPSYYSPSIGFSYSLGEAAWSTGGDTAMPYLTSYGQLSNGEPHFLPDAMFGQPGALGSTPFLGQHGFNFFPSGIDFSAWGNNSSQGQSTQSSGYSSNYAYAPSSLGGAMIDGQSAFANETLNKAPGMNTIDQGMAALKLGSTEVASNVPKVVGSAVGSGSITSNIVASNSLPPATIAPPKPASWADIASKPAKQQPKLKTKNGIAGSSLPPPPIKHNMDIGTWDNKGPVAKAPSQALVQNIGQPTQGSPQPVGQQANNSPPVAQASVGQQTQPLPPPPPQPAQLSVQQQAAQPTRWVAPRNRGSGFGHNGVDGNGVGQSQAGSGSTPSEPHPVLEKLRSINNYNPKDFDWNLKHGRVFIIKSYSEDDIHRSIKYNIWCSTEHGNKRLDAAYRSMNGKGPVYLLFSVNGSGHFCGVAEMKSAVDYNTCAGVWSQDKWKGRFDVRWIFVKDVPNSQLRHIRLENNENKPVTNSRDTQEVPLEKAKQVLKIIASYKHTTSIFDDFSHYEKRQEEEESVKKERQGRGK
UniProt P63104: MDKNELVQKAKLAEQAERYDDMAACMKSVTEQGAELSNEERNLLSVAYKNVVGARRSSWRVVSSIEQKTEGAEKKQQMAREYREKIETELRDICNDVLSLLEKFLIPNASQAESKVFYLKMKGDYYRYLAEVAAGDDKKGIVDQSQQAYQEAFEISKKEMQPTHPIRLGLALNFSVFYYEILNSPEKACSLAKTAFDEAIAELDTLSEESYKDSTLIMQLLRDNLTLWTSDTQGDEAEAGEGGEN
UniProt Q8WU90: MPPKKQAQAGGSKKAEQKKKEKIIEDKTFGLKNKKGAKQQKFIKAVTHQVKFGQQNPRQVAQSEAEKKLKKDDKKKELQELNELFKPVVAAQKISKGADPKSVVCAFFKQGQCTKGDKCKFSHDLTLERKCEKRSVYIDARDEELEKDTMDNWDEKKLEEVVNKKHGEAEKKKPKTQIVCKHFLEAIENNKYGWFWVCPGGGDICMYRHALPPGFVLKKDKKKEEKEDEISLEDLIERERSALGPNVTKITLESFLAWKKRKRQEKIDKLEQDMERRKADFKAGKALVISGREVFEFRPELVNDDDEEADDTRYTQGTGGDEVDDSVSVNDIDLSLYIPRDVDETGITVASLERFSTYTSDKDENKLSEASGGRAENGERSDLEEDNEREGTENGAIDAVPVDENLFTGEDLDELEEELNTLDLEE
UniProt Q9UBH6: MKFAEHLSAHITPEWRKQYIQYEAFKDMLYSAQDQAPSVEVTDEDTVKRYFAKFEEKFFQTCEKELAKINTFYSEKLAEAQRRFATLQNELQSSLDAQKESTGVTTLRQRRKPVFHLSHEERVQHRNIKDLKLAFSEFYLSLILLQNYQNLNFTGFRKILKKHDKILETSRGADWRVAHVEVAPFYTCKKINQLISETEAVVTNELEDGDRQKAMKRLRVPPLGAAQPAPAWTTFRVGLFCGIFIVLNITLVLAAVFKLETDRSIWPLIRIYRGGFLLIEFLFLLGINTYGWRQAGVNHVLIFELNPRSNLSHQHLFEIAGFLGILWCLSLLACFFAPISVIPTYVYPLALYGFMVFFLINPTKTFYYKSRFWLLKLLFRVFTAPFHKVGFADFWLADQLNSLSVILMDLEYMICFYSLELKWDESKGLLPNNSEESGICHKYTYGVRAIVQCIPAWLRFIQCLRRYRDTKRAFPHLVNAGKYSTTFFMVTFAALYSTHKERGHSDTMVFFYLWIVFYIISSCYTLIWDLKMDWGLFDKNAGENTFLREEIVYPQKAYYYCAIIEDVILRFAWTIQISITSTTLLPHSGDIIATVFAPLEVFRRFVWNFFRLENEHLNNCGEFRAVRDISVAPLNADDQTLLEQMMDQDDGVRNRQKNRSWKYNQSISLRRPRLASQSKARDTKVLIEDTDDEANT
UniProt Q8IWT0: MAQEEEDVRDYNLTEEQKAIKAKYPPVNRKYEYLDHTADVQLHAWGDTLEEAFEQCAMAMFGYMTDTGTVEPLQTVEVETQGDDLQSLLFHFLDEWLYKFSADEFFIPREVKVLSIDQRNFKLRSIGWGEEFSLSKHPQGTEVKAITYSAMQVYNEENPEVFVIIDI
UniProt O15498: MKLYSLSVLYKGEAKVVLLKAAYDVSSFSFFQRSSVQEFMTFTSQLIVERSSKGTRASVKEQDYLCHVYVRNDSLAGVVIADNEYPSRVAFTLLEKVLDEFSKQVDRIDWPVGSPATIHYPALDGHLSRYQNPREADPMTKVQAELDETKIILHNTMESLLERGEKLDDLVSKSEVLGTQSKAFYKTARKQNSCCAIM
UniProt Q969M3: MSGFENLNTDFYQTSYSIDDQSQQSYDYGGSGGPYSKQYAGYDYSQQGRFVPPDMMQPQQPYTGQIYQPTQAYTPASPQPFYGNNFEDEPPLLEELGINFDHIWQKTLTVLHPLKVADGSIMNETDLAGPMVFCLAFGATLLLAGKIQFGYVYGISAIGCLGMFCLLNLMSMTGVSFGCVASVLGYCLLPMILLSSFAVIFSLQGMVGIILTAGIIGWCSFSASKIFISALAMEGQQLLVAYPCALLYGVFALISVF

Key:
Test in all cases: log2 fold change, soluble protein after heating vs DMSO (PISA); higher = thermal stabilisation; K562 lysate, 10 uM; active = over 0.2 and 3.5 SD of the protein, either way, in both replicates (recomputed)
[1] = compound: C=CC(=O)N1CCC[C@@H](n2nc(-c3ccc(Oc4ccccc4)cc3)c3c(N)ncnc32)C1 [ibrutinib]
In short: (§1)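 Following dounce homogenisation of K562 pellets in PBS pH 7.4 with 1 mM MgCl2, crude extract at 1 mg/mL protein was incubated for 30 min with 10 μM compound. Aliquots were then heated for 3 min over 48°C-58°C and pooled, NP-40 was added to 0.5% at 4°C, and soluble protein was recovered as the supernatant at 21,000xg for 90 min. Channel-sum-equalised TMTpro 16plex LC-MS/MS quantified this protein. Each value, from duplicates, is a log-two fold change in thermal stability relative to solvent controls.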

[2] = compound: CC(=O)c1cnc2ccc(-c3cc(Cl)c(O)c(Cl)c3)nc2c1N[C@H]1CC[C@H](CN(C)C)CC1
In short: as §1

[3] = compound: CC(C)(C)Cn1c(N)nc2ccc(-c3[nH]c(C(C)(C)C)nc3-c3ccc(F)cc3)nc21 [ralimetinib]
In short: as §1

[4] = compound: CC(C)(O)CC(=O)NCCn1ccc2ncnc(Nc3ccc(Oc4cccc(C(F)(F)F)c4)c(Cl)c3)c21
In short: as §1

[5] = compound: CC(C)C1=C2N=C(C=C(N2N=C1)NCC3=CC=CC=C3)NCCCCCCN
In short: as §1

[6] = compound: CC1=C(C(CC(=O)N1)C2=CC=C(C=C2)C(F)(F)F)C(=O)NC3=C(C=C4C(=C3)C=NN4)F
In short: as §1

[7] = compound: CC1=C(C2=C(C=C1)C(=O)C3=CC=CC=C3N2CCCN)C
In short: as §1

[8] = compound: CC1=C(C=C(C=C1)NC(=O)C2=CC(=CC=C2)C(C)(C)C#N)NC3=CC4=C(C=C3)N=CN(C4=O)C
In short: as §1

[9] = compound: CC1=C(C=C(C=C1)NC(=O)C2=CC(=CC=C2)N(C)C)NC(=O)C3=CC=C(C=C3)O
In short: as §1

[10] = compound: CC1=CC=C(C=C1)SC2=C3C=C(SC3=CN=C2)C(=O)N
In short: as §1

[11] = compound: CCCS(=O)(=O)Nc1ccc(F)c(C(=O)c2c[nH]c3ncc(-c4ccc(Cl)cc4)cc23)c1F [vemurafenib]
In short: as §1

[12] = compound: CCCS(=O)(=O)Nc1ccc(F)c(C(=O)c2c[nH]c3ncc(Cl)cc23)c1F
In short: as §1

[13] = compound: CCN(CCCOc1ccc2c(Nc3cc(CC(=O)Nc4cccc(F)c4)[nH]n3)ncnc2c1)CCOP(=O)(O)O [barasertib]
In short: as §1

[14] = compound: CC[C@@H]1C(=O)N(C)c2cnc(Nc3ccc(C(=O)NC4CCN(C)CC4)cc3OC)nc2N1C1CCCC1
In short: as §1

[15] = compound: CC[C@@H]1C(=O)N(C)c2cnc(Nc3ccc(C(=O)N[C@H]4CC[C@H](N5CCN(CC6CC6)CC5)CC4)cc3OC)nc2N1C(C)C [volasertib]
In short: as §1

[16] = compound: CCn1c(C(=O)N(C2CC2)C2CC2)cc2c3c(ncn3C)c(Nc3cc(C)n(C)n3)nc21
In short: as §1

[17] = compound: CCn1cc(-c2ccnc3[nH]c(-c4cccc(CN(C)C)c4)cc23)c(-c2ccc(NC(=O)N(C)C)cc2)n1
In short: as §1

[18] = compound: CN1CCC(CNc2ccc3ncc(-c4cccc(OC(F)(F)F)c4)n3n2)CC1
In short: as §1

[19] = compound: CN1CCN(CCOc2cc(OC3CCOCC3)c3c(Nc4c(Cl)ccc5c4OCO5)ncnc3c2)CC1 [saracatinib]
In short: as §1

[20] = compound: CN1CCN(c2nc(C3=C(c4c[nH]c5ccccc45)C(=O)NC3=O)c3ccccc3n2)CC1 [sotrastaurin]
In short: as §1

Measured: log2 fold change

ZFYVE9 (UniProt O95405)
inactive: [1] 0.023 | [2] -0.045 | [3] -0.022 | [4] -0.015 | [5] 0.002 | [6] -0.031 | [7] -0.046 | [8] -0.009 | [9] 0.02 | [10] 0.034 | [11] 0.011 | [12] 0.039 | [13] 0.083 | [14] -0.03 | [15] 0.009 | [16] -0.064 | [17] 0 | [18] 0.012 | [19] -0.011 | [20] 0.018

YIPF6 (UniProt Q96EC8)
inactive: [1] -0.072 | [2] 0.044 | [3] 0.065 | [4] -0.173 | [5] -0.034 | [6] 0.065 | [7] -0.007 | [8] -0.008 | [9] 0.029 | [10] -0.023 | [11] -0.074 | [12] -0.016 | [13] -0.021 | [14] 0.049 | [15] 0.03 | [16] 0.033 | [17] -0.017 | [18] -0.032 | [19] 0.073 | [20] 0.037

YTHDC2 (UniProt Q9H6S0)
inactive: [1] 0.003 | [2] 0.009 | [3] 0.061 | [4] 0.021 | [5] 0.013 | [6] 0.003 | [7] -0.023 | [8] -0.003 | [9] 0.019 | [10] -0.018 | [11] 0.068 | [12] 0.022 | [13] 0.07 | [14] -0.013 | [15] -0.027 | [16] 0.025 | [17] 0.025 | [18] 0.005 | [19] 0.015 | [20] 0.022

ZFAND2B (UniProt Q8WV99)
inactive: [1] 0.014 | [2] 0.054 | [3] 0.073 | [4] -0.056 | [5] -0.094 | [6] -0.066 | [7] -0.033 | [8] 0.131 | [9] -0.129 | [10] -0.043 | [11] -0.051 | [12] 0.055 | [13] -0.024 | [14] -0.045 | [15] 0.08 | [16] 0.037 | [17] -0.242 | [18] 0.148 | [19] -0.085 | [20] -0.177

ZGPAT (UniProt Q8N5A5)
inactive: [1] 0.066 | [2] -0.114 | [3] 0 | [4] -0.017 | [5] 0.013 | [6] -0.013 | [7] 0.019 | [8] 0.02 | [9] 0.001 | [10] -0.048 | [11] 0.003 | [12] 0.027 | [13] -0.016 | [14] 0.014 | [15] 0.036 | [16] 0.005 | [17] 0.012 | [18] 0.013 | [19] 0.057 | [20] 0.073

ZCCHC3 (UniProt Q9NUD5)
inactive: [1] 0.028 | [2] -0.031 | [3] 0.031 | [4] 0.046 | [5] 0.006 | [6] 0.025 | [7] -0.009 | [8] -0.047 | [9] 0.001 | [10] 0.027 | [11] -0.003 | [12] 0.019 | [13] 0.021 | [14] -0.01 | [15] -0.014 | [16] 0.02 | [17] -0.022 | [18] 0.063 | [19] 0.025 | [20] 0.011

XRCC5 (UniProt P13010)
inactive: [1] -0.011 | [2] -0.002 | [3] 0.001 | [4] 0.004 | [5] 0.008 | [6] -0.019 | [7] 0.062 | [8] -0.026 | [9] 0.004 | [10] 0.013 | [11] 0.001 | [12] 0.003 | [13] 0.002 | [14] -0.036 | [15] -0.045 | [16] 0.014 | [17] 0.079 | [18] -0.052 | [19] -0.007 | [20] -0.01

YTHDF2 (UniProt Q9Y5A9)
inactive: [1] -0.043 | [2] 0.038 | [3] -0.03 | [4] -0.011 | [5] 0.07 | [6] 0.059 | [7] 0.066 | [8] -0.185 | [9] 0.028 | [10] 0.038 | [11] -0.015 | [12] 0.019 | [13] 0.108 | [14] 0.037 | [15] -0.079 | [16] 0.129 | [17] 0.163 | [18] -0.107 | [19] 0.062 | [20] -0.102

XPO5 (UniProt Q9HAV4)
inactive: [1] -0.041 | [2] 0.003 | [3] 0 | [4] -0.043 | [5] -0.039 | [6] -0.014 | [7] -0.01 | [8] -0.004 | [9] 0.043 | [10] -0.01 | [11] -0.006 | [12] 0.005 | [13] 0.022 | [14] -0.028 | [15] -0.062 | [16] 0.027 | [17] -0.043 | [18] -0.041 | [19] 0.011 | [20] 0.007

2 entries picked at random from those above, as already listed:
XPO5 (UniProt Q9HAV4)
inactive: [1] -0.041 | [2] 0.003 | [3] 0 | [4] -0.043 | [5] -0.039 | [6] -0.014 | [7] -0.01 | [8] -0.004 | [9] 0.043 | [10] -0.01 | [11] -0.006 | [12] 0.005 | [13] 0.022 | [14] -0.028 | [15] -0.062 | [16] 0.027 | [17] -0.043 | [18] -0.041 | [19] 0.011 | [20] 0.007

ZCCHC3 (UniProt Q9NUD5)
inactive: [1] 0.028 | [2] -0.031 | [3] 0.031 | [4] 0.046 | [5] 0.006 | [6] 0.025 | [7] -0.009 | [8] -0.047 | [9] 0.001 | [10] 0.027 | [11] -0.003 | [12] 0.019 | [13] 0.021 | [14] -0.01 | [15] -0.014 | [16] 0.02 | [17] -0.022 | [18] 0.063 | [19] 0.025 | [20] 0.011

Additional results

YWHAZ (UniProt P63104)
inactive: [1] 0.002 | [2] -0.013 | [3] -0.024 | [4] 0.031 | [5] -0.014 | [6] -0.023 | [7] 0.03 | [8] 0.042 | [9] -0.022 | [10] -0.025 | [11] -0.031 | [12] 0.012 | [13] -0.055 | [14] -0.016 | [15] 0.015 | [16] -0.016 | [17] -0.005 | [18] 0.045 | [19] 0.023 | [20] -0.032

ZC3H15 (UniProt Q8WU90)
inactive: [1] -0.006 | [2] 0.004 | [3] 0.015 | [4] -0.021 | [5] 0.017 | [6] -0.01 | [7] -0.003 | [8] 0.043 | [9] 0 | [10] -0.019 | [11] -0.047 | [12] 0.012 | [13] -0.031 | [14] 0.07 | [15] 0.011 | [16] -0.029 | [17] -0.081 | [18] 0.06 | [19] -0.002 | [20] 0.012

XPR1 (UniProt Q9UBH6)
inactive: [1] 0.001 | [2] 0.092 | [3] 0.048 | [4] -0.105 | [5] -0.023 | [6] 0.012 | [7] 0.096 | [8] -0.016 | [9] 0.002 | [10] -0.007 | [11] -0.033 | [12] 0.001 | [13] 0.004 | [14] 0.083 | [15] -0.084 | [16] 0.016 | [17] 0 | [18] -0.001 | [19] -0.062 | [20] 0.063

ZBTB8OS (UniProt Q8IWT0)
inactive: [1] 0.049 | [2] 0.035 | [3] 0.024 | [4] -0.057 | [5] -0.017 | [6] -0.026 | [7] 0.035 | [8] 0.01 | [9] -0.019 | [10] 0.028 | [11] -0.07 | [12] 0.001 | [13] 0.023 | [14] -0.064 | [15] -0.031 | [16] 0.004 | [17] -0.066 | [18] 0.075 | [19] -0.024 | [20] -0.01

YKT6 (UniProt O15498)
inactive: [1] -0.01 | [2] 0.02 | [3] -0.011 | [4] -0.003 | [5] -0.033 | [6] 0 | [7] 0.001 | [8] -0.013 | [9] -0.021 | [10] -0.029 | [11] -0.033 | [12] -0.028 | [13] 0.021 | [14] 0.017 | [15] 0.031 | [16] 0.026 | [17] 0.065 | [18] -0.156 | [19] -0.015 | [20] 0.015

YIPF5 isoform 3 (UniProt Q969M3)
inactive: [1] 0.009 | [2] 0.01 | [3] -0.069 | [4] -0.075 | [5] 0.048 | [6] 0.001 | [7] 0.047 | [8] -0.027 | [9] 0.014 | [10] 0.023 | [11] -0.106 | [12] -0.049 | [13] 0.02 | [14] 0.006 | [15] -0.032 | [16] 0.005 | [17] -0.018 | [18] 0.148 | [19] -0.036 | [20] 0.134
